Data: PMC10303846, “In vitro antiplasmodial activity and toxicological profile of extracts, fractions and chemical constituents of leaves and stem bark from Dacryodes edulis (Burseraceae)” (BMC Complementary Medicine and Therapies, 2023)

System: RAW 264.7 cells
Assay: Resazurin-based in vitro cytotoxicity assay
Format: cell-based
Conditions: CC50 Raw cells / IC50 PfDd2
Method: The cytotoxicity profile of extracts, fractions and isolated compounds was assessed using the resazurin-based assay essentially as previously described against RAW 264.7 cells duly cultivated in complete Dulbecco′s Modified Eagle′s Medium (DMEM) that contain 13.5 g/L of DMEM (Sigma Aldrich), 10% fetal bovine serum (Sigma Aldrich), 0.2% sodium bicarbonate (w/v) (Sigma Aldrich) and 50 μg/mL of gentamicin (Sigma Aldrich). Globally, macrophages (Raw cells) were seeded into 96-well cell-culture flat-bottomed plates at a density of 10^4 cells in 100 μL of complete medium/well and placed in incubation for 24 h at 37℃, and 5% CO2 allowing cell adhesion. Following cell adhesion, ten microliters of each serially diluted test sample solution was added to assay plates and left in incubation for 48 h under the same experimental conditions. Growth control (1% DMSO-100% growth) and positive control wells (podophyllotoxin at 20 μM) were included in the experimental plates. Cell proliferation was checked by adding 10 μL of a stock solution of resazurin (0.15 mg/mL in sterile PBS) to each well followed by an additional incubation of 4 h in the same culture conditions. Fluorescence was then read using Tecan Infinite M200 fluorescence multiwell plate reader (Tecan) at an excitation/emission of 530/590 nm. […]

| SMILES | SI PfDd2 |
| --- | --- |
| C/C(=C/CCC(C)C1CCC2(C)C3=CCC4C(C)(C)C(=O)CCC4(C)C3CCC12C)C(=O)O (centres unmarked) [compound 13, 3-oxo-lanosta-7,24-Z-dien-26-oid acid] | > 7 |
| O=C(O)c1ccc(O)c(O)c1 [compound 6, 3,4-dihydroxybenzoic acid] | > 6 |
